In PubChem BioAssay AID493014 (National Center for Advancing Translational Sciences (NCATS), 2011):
This is one part of the list. These are further read-outs of the screen, such as a control signal, another cell line or another target. No call is given for them. Compounds called inactive in the main read-out are mostly missing here. Potencies come from curve fits of mixed quality, noted in brackets.

Test: qHTS Assay to Find Inhibitors of Chronic Active B-Cell Receptor Signaling
Details: ABC-DLBCL IkBa-CBG/CBR reporter, luminescence ratio (green luciferase fused to IkBa over red control in TMD8 lymphoma cells), 4 h
Outline: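 Concentration-response series (up to 46 uM) were applied to TMD8 dual-reporter cells for 4 h at 37C with doxycycline. Green/red ratio, after filter-overlap correction, defined %Activity; red signal alone was normalised to basal cells and zero luminescence.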

[1] = measured here: CBR red luminescence, cell number

COc1ccccc1CN1C[C@@H]2C[C@@H](c3ccc(C)c(C)c3)N3CCC[C@@]23C1=O
AC50 (measured here: IkBa-CBG green luminescence): 35.5 µM [rising, partial curve, poor fit]

CN(c1ccccc1)c1nc(N)c([N+](=O)[O-])c(N2CCCCC2)n1
AC50 [1]: 4.47 µM [rising, partial curve, poor fit]

O=C(Nc1cccc(O)c1)C1CC(c2cccc(Br)c2)=NO1 (stereo not drawn)
AC50 [1]: 20 µM [falling, partial curve, poor fit]

O=C(C(=O)N1CCN(c2ccc(F)cc2)CC1)c1c[nH]c2ccccc12
AC50 [1]: 7.08 µM [falling, partial curve]

CCn1c(SCc2ccccc2F)nnc1-c1ccncc1
AC50 [1]: 6.31 µM [rising, single point]

CC(C)(C)c1nc(N)nc(=O)[nH]1
AC50 [1]: 0.447 µM [falling, partial curve, poor fit]

Cc1cccc2[nH]c3c(N4CC=C(c5ccc(F)cc5)CC4)ncnc3c12
AC50 [1]: 35.5 µM [falling, single point]

Cc1cc(N2CCOCC2)ccc1/C=C1\SC(=O)N(C(C)C)C1=O
AC50 [1]: 1.58 µM [rising, partial curve]

Cc1ccc(NC(=S)NNC(=O)c2ccccc2O)c(C)c1
AC50 [1]: 5.01 µM [falling, partial curve]

CC(=O)C[C@H](O)CC(=O)[C@H]1OC(=O)CCCCCc2ccccc21
AC50 [1]: 32.6 µM [rising, single point]

CC(=O)Nc1ccc(Cc2ccc3[nH]c(=O)cc(C)c3c2)cc1
AC50 [1]: 0.794 µM [rising, full curve, poor fit]

COCC(=O)N1CCC(Oc2ccc(C(=O)NCCCC3CCCC3)cc2)CC1
AC50 [1]: 0.891 µM [falling, full curve]

COCCN(C(=O)Nc1ccccc1)C(C)c1cccnc1 (stereo not drawn)
AC50 [1]: 0.0891 µM [rising, full curve, poor fit]

Cc1ccc2c(c1)C(c1ccncc1)=NNC(c1ccccc1)=N2
AC50 [1]: 15.8 µM [falling, single point]

O=C(Nc1nc(-c2ccccc2Cl)cs1)c1cccnc1
AC50 [1]: 4.61 µM [falling, partial curve, poor fit]

O=C(O)CN1C(=O)CSC1=S
AC50 [1]: 31.6 µM [rising, single point]

COc1ccc(/C=C(/C#N)C(=O)Nc2cc(C)ccc2C)cc1C(=O)O
AC50 [1]: 35.5 µM [falling, single point]

Cc1ccc(C(=O)O)cc1NC(=S)NC(=O)c1ccc([N+](=O)[O-])cc1Cl
AC50 [1]: 20.6 µM [falling, single point]

CC(C)COC(=O)C1[C@H]2C(=O)N(Cc3cccs3)C[C@]23C=C[C@H]1O3 (stereo partly drawn)
AC50 [1]: 20.6 µM [rising, single point]

Cc1c(/C=N/Nc2nc3ccccc3[nH]2)c2ccccc2n1C
AC50 [1]: 35.5 µM [falling, single point]

CP(=O)(COC(=O)c1ccccc1)COC(=O)c1ccccc1
AC50 [1]: 8.91 µM [falling, partial curve, poor fit]

CC(C)N1CCc2c(sc(NC(=O)c3ccc4ccccc4c3)c2C(N)=O)C1
AC50 [1]: 15.8 µM [falling, single point]

COCCn1cnnc1SCC(=O)Nc1sc2c(c1C#N)CCC2
AC50 [1]: 6.51 µM [rising, single point]

O=C(NC1CC(=O)N(c2ccc(Cl)cc2)C1)c1cc2ccccc2o1 (stereo not drawn)
AC50 [1]: 12.6 µM [rising, single point]

CC#CC(=O)N1CCC(Oc2cccc(C(=O)NCc3ccccn3)c2)CC1
AC50 [1]: 15.8 µM [falling, single point]

CC(CN1CCCCC1)OC(=O)c1cccc(F)c1 (stereo not drawn)
AC50 [1]: 14.1 µM [rising, partial curve, poor fit]

O=C(CCCOc1ccccc1)N1CCN(S(=O)(=O)c2cccs2)CC1
AC50 [1]: 6.51 µM [rising, single point]

COc1cc(OC)c(OC)cc1/C=N/n1c(COc2ccccc2)n[nH]c1=S
AC50 [1]: 0.0891 µM [rising, full curve, poor fit]

O=C(NCCCn1ccnc1)Nc1cccc(Cl)c1
AC50 [1]: 3.66 µM [rising, partial curve, poor fit]

Cc1ccccc1-c1nc(-c2ccccn2)no1
AC50 [1]: 10 µM [falling, partial curve]

COc1cc(-c2n[nH]c(=S)n2-c2ccc(Br)cc2)cc(OC)c1OC
AC50 [1]: 35.5 µM [rising, single point]

O=C(NCC(O)c1ccccc1)c1cccs1 (stereo not drawn)
AC50 [1]: 12.6 µM [falling, partial curve, poor fit]

Cc1c(C(=O)N2CCN(C)CC2)oc2c1C(=O)CC(C)(C)C2
AC50 [1]: 0.731 µM [falling, partial curve, poor fit]

O=C(Nc1nc2ccccc2[nH]1)c1ccc(F)cc1
AC50 [1]: 1.78 µM [falling, full curve]

CCN(c1ccccc1)S(=O)(=O)c1ccc(NC(=O)c2nc(S(C)(=O)=O)ncc2Cl)cc1
AC50 [1]: 11.2 µM [falling, partial curve, poor fit]

CC(NC(=O)c1cc2ccccc2o1)c1cccs1 (stereo not drawn)
AC50 [1]: 9.2 µM [falling, partial curve, poor fit]

COc1ccc2c(CCNC(=O)CN3C(=O)c4ccccc4C3=O)c[nH]c2c1
AC50 [1]: 20.6 µM [rising, partial curve, poor fit]

S=C(NCc1ccccn1)Nc1ccc(Cl)cc1
AC50 [1]: 35.5 µM [falling, single point]

CSc1nnc(NC(=O)c2nc(S(=O)(=O)Cc3cccc(C)c3)ncc2Cl)s1
AC50 [1]: 22.4 µM [falling, single point]

C=C(C)c1cccc(C(C)(C)NC(=O)N2CCCC(C(N)=O)C2)c1 (stereo not drawn)
AC50 [1]: 32.6 µM [rising, partial curve, poor fit]

Cc1ccc(NC(=O)C2C3C=CC(O3)C2C(=O)O)cc1C (stereo not drawn)
AC50 [1]: 12.6 µM [rising, partial curve, poor fit]

Cn1c(/C=N/NC(=O)c2ccccc2)nc2ccccc21
AC50 [1]: 11.2 µM [falling, partial curve]

NNC(=O)CNC(c1ccccc1)c1cc(Br)ccc1NC(=O)c1ccccc1Br (stereo not drawn)
AC50 [1]: 15.8 µM [falling, single point]
